Test results taken from PMC5293587.

Biological target: Flag-tagged HEY1 (hairy/enhancer-of-split related with YRPW motif 1)
Assay: affinity purification with mass spectrometry; Flag-HEY1 transfected into U2OS cells; lysate in NETN buffer (20 mM Tris/HCl pH 8.0, 1 mM EDTA, 0.5% Nonidet P-40, 100 mM NaCl); anti-Flag M2 magnetic beads, 4°C, 90 min; LC-MS/MS of the immune complexes

B1: Non-Pou Domain Containing, Octamer-Binding (NONO), endogenous (protein, UniProt Q15233 1-471)
chain: MQSNKTFNLEKQNHTPRKHHQHHHQQQHHQQQQQQPPPPPIPANGQQASSQNEGLTIDLKNFRKPGEKTFTQRSRLFVGNLPPDITEEEMRKLFEKYGKAGEVFIHKDKGFGFIRLETRTLAEIAKVELDNMPLRGKQLRVRFACHSASLTVRNLPQYVSNELLEEAFSVFGQVERAVVIVDDRGRPSGKGIVEFSGKPAARKALDRCSEGSFLLTTFPRPVTVEPMDQLDDEEGLPEKLVIKNQQFHKEREQPPRFAQPGSFEYEYAMRWKALIEMEKQQQDQVDRNIKEAREKLEMEMEAARHEHQVMLMRQDLMRRQEELRRMEELHNQEVQKRKQLELRQEEERRRREEEMRRQQEEMMRRQQEGFKGTFPDAREQEIRMGQMAMGGAMGINNRGAMPPAPVPAGTPAPPGPATMMPDGTLGLTPPTTERFGQAATMEGIGAIGGTPPAFNRAAPGAEFAPNKRRRY
Q: For B1, which binding is on record?
A: The binding was “binds”.

Results are given in words; binding and its absence hold for the method and conditions named. In cells and extracts the contact can be indirect. A yes stands for co-enrichment or nearness to the bait. Other partners may have been found.
